Tested on: hippocampal gene expression
Test: Hippocampal gene expression by DNA microarray and IPA network analysis
Type: in vivo, mouse
Details: ME+ASX group
Source text: All the mice used in this experiment were divided so that the weight was equalized at the preliminary breeding end point. These were divided into three groups of placebo+rest (CON), placebo+low intensity exercise (ME), and low intensity exercise+0.5% ASX uptake (ME+ASX) (each n=8). Mice were bred each one per a cage.
The brain was removed two days after 4 weeks training and ASX uptake. The hippocampus was fractionated from the collected brain (Hirano M, Rakwal R, Shibato J, Sawa H, Nagashima K, Ogawa Y, Yoshida Y, Iwahashi H, Niki E, Masuo Y. Proteomics- and transcriptomics-based screening of differentially expressed proteins and genes in brain of Wig rat: a model for attention deficit hyperactivity disorder (ADHD) research. J Proteome Res 7: 2471-2489, 2008). The hippocampus was immediately frozen with liquid nitrogen and stored in a freezer at −80° C.
In this experiment, SurePrint G3 mouse 8×60K whole genome DNA microarray chip (G4858A, Agilent Technologies, Palo Alto, Calif., USA) was used for RNA analysis. In the following, the procedure is shown.
1) Mixing of RNA: RNA extracted from hippocampus samples of each individual (n=8, 250 ng/1 individual) was mixed for each group.
2) Labeling of RNA: RNA extracted from each sample is labeled with Cy3 and Cy5 dyes (Two-color labeling) using an Agilent Low RNA Input Fluorescent Linear Amplification Kit (Agilent Technologies).
3) Hybridization: Samples of fluorescently labeled control group (CON group) and experiment group (ME group, ME+ASX group) are assayed on the same Microarray chip and hybridized with a 60 base pair probe on the slide glass. Conditions for hybridization and washing were in accordance with the conditions of the manufacturer. 4) Scan: Hybridized Microarray chip was scanned with Agilent Microarray scanner G2505C. 5) Processing of scan data: In order to clarify the change in gene expression in the experiment group using the control group as a control, slide images were processed using Agilent Feature Extraction software. In the program at this time, the color intensity of Cy3 and Cy5 of all the probes was measured. 6) Standardization of data: For standardization of data, LOWESS (locally weighted linear regression) was used, and logarithmic and logarithmic error rates standardized from Cy3 and Cy5 signals were calculated. The level of significance at this time was set at 1%. 7) Data acquisition: A list of genes that came out up to 6) was prepared using GeneSpring version GX 10 (Agilent). The gene list was created by extracting only genes whose gene expression was enhanced by 1.5-fold or more and genes suppressed to 0.75-fold or less with both intensities using the control group as a control. […]

## CC1=C(/C=C/C(C)=C/C=C/C(C)=C/C=C/C=C(C)/C=C/C=C(C)/C=C/C2=C(C)C(=O)[C@@H](O)CC2(C)C)C(C)(C)C[C@H](O)C1=O [ASX, astaxanthin]
  number of genes enhanced by 1.5-fold or more as compared with the CON group (microarray, 55,681 genes): 3,891
  number of genes suppressed to 0.75-fold or less as compared with the CON group (microarray): 411
Not in ME
  number of hippocampal genes (IPA) suppressed only by ME+ASX: 14
  number of hippocampal genes (IPA) whose expression was enhanced only by ME+ASX: 108

— patent publication US11116732B2, “Carotenoid-containing cognitive function improving composition for use in exercise therapy for improving cognitive function” (ASTAREAL CO., LTD., priority 2016, dated 2021)
